From patent US10604554B2, “Double-acylated GLP-1 derivatives” (Novo Nordisk A/S, priority 2012, dated 2020)
Like-named read-outs stand apart in the source and are kept apart here. For part of these data: Part of at least one peptide drawing is inferred or uncertain, most often the ends. For part of these data: At least one compound was matched to its structure with a doubt left.

By UniProt entry, the sequences of proteins in these tests, tags left out. Residues count along the entry.
UniProt P43220, 24-463: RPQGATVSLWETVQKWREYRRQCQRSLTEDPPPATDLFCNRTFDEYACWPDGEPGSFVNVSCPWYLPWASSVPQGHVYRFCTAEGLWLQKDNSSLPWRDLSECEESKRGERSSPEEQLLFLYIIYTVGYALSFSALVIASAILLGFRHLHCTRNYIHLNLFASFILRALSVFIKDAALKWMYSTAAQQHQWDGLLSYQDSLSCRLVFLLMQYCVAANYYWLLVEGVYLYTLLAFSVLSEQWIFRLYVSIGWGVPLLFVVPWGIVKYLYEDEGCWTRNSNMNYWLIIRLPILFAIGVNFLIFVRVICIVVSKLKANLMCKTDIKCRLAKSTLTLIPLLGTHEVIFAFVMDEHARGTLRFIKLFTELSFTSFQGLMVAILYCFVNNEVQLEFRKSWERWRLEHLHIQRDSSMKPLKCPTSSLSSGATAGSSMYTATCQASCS

What was measured:
[1] = biological target: T1, human GLP-1 receptor (Homo sapiens, UniProt P43220); assay: GLP-1 receptor binding (SPA, displacement of 125I-GLP-1)
T1 construct: expressed in transfected cells; host or cells: BHK cells, clone FCW467-12A/KZ10-1 (parent line BHKTS13), further transfected with CRE luciferase
Method: The purpose of this experiment is to investigate the binding to the GLP-1 receptor of the GLP-1 derivatives, and how the binding is potentially influenced by the presence of albumin. This is done in an in vitro experiment as described below.
In order to test the binding of the derivatives to albumin, the assay was performed with a low concentration of albumin (0.001%—corresponding to the residual amount thereof in the tracer), as well as with a high concentration of albumin (2.0% added). A shift in the binding affinity, IC50, is an indication that the peptide in question binds to albumin, and thereby a prediction of a potential protracted pharmacokinetic profile of the peptide in question in animal models.
Species (in vitro): Hamster
Biological End Point: Receptor Binding
A stable transfected cell line and a high expressing clone were selected for screening. […]
The cells (approx. 80% confluence) were washed twice in PBS and harvested with Versene (aqueous solution of the tetrasodium salt of ethylenediaminetetraacetic acid), following which they were separated by centrifugation at 1000 rpm for 5 min. […] The resulting pellet was resuspended in Buffer 2, and the protein concentration was determined. […]
Test compounds, membranes, SPA-particles and [^125I]-GLP-1(7-36)NH2 were diluted in assay buffer. […] The plates were centrifuged (1500 rpm, 10 min) and counted in Topcounter.

[2] = biological target: T1, human GLP-1 receptor; assay: In vitro potency (CRE luciferase; whole cells); type: cell-based; design: unit not given here; details: ratio of EC50 at 1% HSA to EC50 at 0% HSA
Method: The purpose of this example is to test the activity, or potency, of the GLP-1 derivatives in vitro. The in vitro potency is the measure of human GLP-1 receptor activation in a whole cell assay.
In vitro potency was determined by measuring the response of human GLP-1 receptor in a reporter gene assay. The assay was performed in a stably transfected BHK cell line that expresses the human GLP-1 receptor and contains the DNA for the cAMP response element (CRE) coupled to a promoter and the gene for firefly luciferase (CRE luciferase). When the human GLP-1 receptor was activated it results in the production of cAMP, which in turn results in the luciferase protein being expressed. When assay incubation was completed the luciferase substrate (luciferin) was added and the enzyme converts luciferin to oxyluciferin and produces bioluminescence. The luminescence was measured and was the readout for the assay. […]
3) The cells were counted and adjusted to 5×10^3 cells/50 μl (1×10^5 cells/ml) in assay medium. […]
4) Stocks of the test compounds and reference compounds were diluted to a concentration of 0.2 μM in 0% assay buffer for the 0% HSA CRE luciferase assay and 1% assay buffer for the HSA CRE luciferase assay. […] 10) Each assay plate was read in a Packard TopCount NXT instrument. […]

Row | Compound | IC50 ([1]; 0.001% HSA (low albumin), read-out: Receptor binding affinity IC50 (low HSA)) [nM] | IC50 ([1]; read-out: Receptor binding affinity IC50 (high HSA), 2.0% HSA (high albumin)) [nM] | EC50/pM (ratio 1% HSA/0% HSA) [2]
1 | CC[C@H](C)[C@H](NC(=O)[C@H](Cc1ccccc1)NC(=O)[C@H](CCC(=O)O)NC(=O)[C@H](CCCCNC(=O)COCCOCCNC(=O)COCCOCCNC(=O)CC[C@H](NC(=O)CCCCCCCCCOc1ccc(C(=O)O)cc1)C(=O)O)NC(=O)[C@H](C)NC(=O)[C@H](C)NC(=O)[C@H](CCC(N)=O)NC(=O)CNC(=O)[C@H](CCC(=O)O)NC(=O)[C@H](CC(C)C)NC(=O)[C@H](Cc1ccc(O)cc1)NC(=O)[C@H](CO)NC(=O)[C@H](CO)NC(=O)[C@@H](NC(=O)[C@H](CC(=O)O)NC(=O)[C@H](CO)NC(=O)[C@@H](NC(=O)[C@H](Cc1ccccc1)NC(=O)[C@@H](NC(=O)CNC(=O)[C@H](CCC(=O)O)NC(=O)C(C)(C)NC(=O)[C@@H](N)Cc1c[nH]cn1)[C@@H](C)O)[C@@H](C)O)C(C)C)C(=O)N[C@@H](C)C(=O)N[C@@H](Cc1c[nH]cn1)C(=O)N[C@@H](CC(C)C)C(=O)N[C@H](C(=O)N[C@@H](CCC(N)=O)C(=O)NCC(=O)N[C@@H](CCCNC(=N)N)C(=O)N[C@@H](CCCCNC(=O)COCCOCCNC(=O)COCCOCCNC(=O)CC[C@H](NC(=O)CCCCCCCCCOc1ccc(C(=O)O)cc1)C(=O)O)C(=O)O)C(C)C [Example 17 of WO 2011/080103, reference compound] | 45 | ≥ 1000 | 
2 | CC[C@H](C)[C@H](NC(=O)[C@H](Cc1ccccc1)NC(=O)[C@H](CCC(=O)O)NC(=O)[C@H](CCCCNC(=O)[C@H](CCCCNC(=O)[C@H](CCCCNC(=O)CC[C@H](NC(=O)CCCCCCCCCCOc1ccc(C(=O)O)cc1)C(=O)O)N(C)C)N(C)C)NC(=O)[C@H](C)NC(=O)[C@H](C)NC(=O)[C@H](CCC(N)=O)NC(=O)CNC(=O)[C@H](CCC(=O)O)NC(=O)[C@H](CC(C)C)NC(=O)[C@H](Cc1ccc(O)cc1)NC(=O)[C@H](CO)NC(=O)[C@H](CO)NC(=O)[C@@H](NC(=O)[C@H](CC(=O)O)NC(=O)[C@H](CO)NC(=O)[C@@H](NC(=O)[C@H](Cc1ccccc1)NC(=O)[C@@H](NC(=O)CNC(=O)[C@H](CCC(=O)O)NC(=O)C(C)(C)NC(=O)CCc1c[nH]cn1)[C@@H](C)O)[C@@H](C)O)C(C)C)C(=O)N[C@@H](C)C(=O)N[C@@H](Cc1c[nH]c2ccccc12)C(=O)N[C@@H](CC(C)C)C(=O)N[C@H](C(=O)N[C@@H](CCCNC(=N)N)C(=O)NCC(=O)N[C@@H](CCCNC(=N)N)C(=O)N[C@@H](CCCCNC(=O)[C@H](CCCCNC(=O)[C@H](CCCCNC(=O)CC[C@H](NC(=O)CCCCCCCCCCOc1ccc(C(=O)O)cc1)C(=O)O)N(C)C)N(C)C)C(=O)O)C(C)C [Example 29, N^ε26-[(2S)-6-[[(2S)-6-[[(4S)-4-carboxy-4-[11-(4-carboxyphenoxy)undecanoylamino]butanoyl]amino]-2-(dimethylamino)hexanoyl]amino]-2-(dimethylamino)hexanoyl], N^ε37-[(2S)-6-[[(2S)-6-[[(4S)-4-carboxy-4-[11-(4-carboxyphenoxy)undecanoylamino]butanoyl]amino]-2-(dimethylamino)hexanoyl]amino]-2-(dimethylamino)hexanoyl]-[Imp^7,Aib^8,Arg^34,Lys^37]-GLP-1-(7-37)-peptide] |  |  | 54
